From the supplement of paper PMC8728848
The other results are listed elsewhere or left out.

How the values were obtained:
Test in all cases: glycan array binding signal (z-score within array); higher = stronger binding
Conditions in all cases: glycan notation: IUPAC condensed, linker removed
[1] = biological target: Neu5Ac(a2-3)Gal(b1-3)[Fuc(a1-4)]GlcNAc
Summary of the method: (§1)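 The Consortium for Functional Glycomics database supplied 3228 glycan arrays, of which those lacking an available protein sequence were dropped. The binding signal, a within-array Z-score, was averaged across arrays of the same protein sequence and across linkers. Negative scores can be read as non-binding.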

[2] = biological target: Neu5Ac(a2-3)Gal(b1-3)[Fuc(a1-4)]GlcNAc(b1-3)Gal(b1-3)[Fuc(a1-4)]GlcNAc
Summary of the method: as §1

[3] = biological target: Neu5Ac(a2-3)Gal(b1-3)[Fuc(a1-4)]GlcNAc(b1-3)Gal(b1-4)[Fuc(a1-3)]GlcNAc
Summary of the method: as §1

[4] = biological target: Neu5Ac(a2-3)Gal(b1-3)[GlcNAc(b1-6)]GalNAc
Summary of the method: as §1

[5] = biological target: Neu5Ac(a2-3)Gal(b1-3)[Neu5Ac(a2-6)]GalNAc
Summary of the method: as §1

[6] = biological target: Neu5Ac(a2-3)Gal(b1-3)[Neu5Ac(a2-6)]GlcNAc(b1-3)[Fuc(a1-3)[Gal(b1-4)]GlcNAc(b1-6)]Gal(b1-4)Glc
Summary of the method: as §1

[7] = biological target: Neu5Ac(a2-3)Gal(b1-3)]Neu5Ac(a2-3)Gal(b1-4)]GlcNAc
Summary of the method: as §1

Neu5Ac(a2-3)Gal(b1-4)Glc = biological target: Neu5Ac(a2-3)Gal(b1-4)Glc
Summary of the method: as §1

[8] = biological target: Neu5Ac(a2-3)Gal(b1-4)GlcNAc
Summary of the method: as §1

[9] = biological target: Neu5Ac(a2-3)Gal(b1-4)GlcNAc(b1-2)Man
Summary of the method: as §1

[10] = biological target: Neu5Ac(a2-3)Gal(b1-4)GlcNAc(b1-2)Man(a1-3)[GlcNAc(b1-4)][Neu5Ac(a2-3)Gal(b1-4)GlcNAc(b1-2)Man(a1-6)]Man(b1-4)GlcNAc(b1-4)GlcNAc
Summary of the method: as §1

[11] = biological target: Neu5Ac(a2-3)Gal(b1-4)GlcNAc(b1-2)Man(a1-3)[Neu5Ac(a2-3)Gal(b1-4)GlcNAc(b1-2)Man(a1-6)]Man(b1-4)GlcNAc(b1-4)GlcNAc
Summary of the method: as §1

[12] = biological target: Neu5Ac(a2-3)Gal(b1-4)GlcNAc(b1-2)Man(a1-3)[Neu5Ac(a2-3)Gal(b1-4)GlcNAc(b1-2)Man(a1-6)]Man(b1-4)GlcNAc(b1-4)[Fuc(a1-6)]GlcNAc
Summary of the method: as §1

[13] = biological target: Neu5Ac(a2-3)Gal(b1-4)GlcNAc(b1-2)Man(a1-3)[Neu5Ac(a2-6)Gal(b1-4)GlcNAc(b1-2)Man(a1-6)]Man(b1-4)GlcNAc(b1-4)GlcNAc
Summary of the method: as §1

[14] = biological target: Neu5Ac(a2-3)Gal(b1-4)GlcNAc(b1-2)[Neu5Ac(a2-3)Gal(b1-4)GlcNAc(b1-4)]Man(a1-3)[GlcNAc(b1-4)][Neu5Ac(a2-3)Gal(b1-4)GlcNAc(b1-2)[Neu5Ac(a2-3)Gal(b1-4)GlcNAc(b1-6)]Man(a1-6)]Man(b1-4)GlcNAc(b1-4)GlcNAc
Summary of the method: as §1

[15] = biological target: Neu5Ac(a2-3)Gal(b1-4)GlcNAc(b1-2)[Neu5Ac(a2-3)Gal(b1-4)GlcNAc(b1-4)]Man(a1-3)[GlcNAc(b1-4)][Neu5Ac(a2-3)Gal(b1-4)GlcNAc(b1-4)Man(a1-6)]Man(b1-4)GlcNAc(b1-4)GlcNAc
Summary of the method: as §1

[16] = biological target: Neu5Ac(a2-3)Gal(b1-4)GlcNAc(b1-2)[Neu5Ac(a2-3)Gal(b1-4)GlcNAc(b1-6)]Man(a1-6)[Neu5Ac(a2-3)Gal(b1-4)GlcNAc(b1-2)Man(a1-3)]Man(b1-4)GlcNAc(b1-4)GlcNAc
Summary of the method: as §1

[17] = biological target: Neu5Ac(a2-3)Gal(b1-4)GlcNAc(b1-2)[Neu5Ac(a2-3)Gal(b1-4)GlcNAc(b1-6)]Man(a1-6)[Neu5Ac(a2-3)Gal(b1-4)GlcNAc(b1-2)Man(a1-3)][GlcNAc(b1-4)]Man(b1-4)GlcNAc(b1-4)GlcNAc
Summary of the method: as §1

[18] = biological target: Neu5Ac(a2-3)Gal(b1-4)GlcNAc(b1-3)Gal
Summary of the method: as §1

[19] = biological target: Neu5Ac(a2-3)Gal(b1-4)GlcNAc(b1-3)Gal(b1-3)GlcNAc
Summary of the method: as §1

[20] = biological target: Neu5Ac(a2-3)Gal(b1-4)GlcNAc(b1-3)Gal(b1-4)GlcNAc
Summary of the method: as §1

[21] = biological target: Neu5Ac(a2-3)Gal(b1-4)GlcNAc(b1-3)Gal(b1-4)GlcNAc(b1-2)Man(a1-3)[Neu5Ac(a2-3)Gal(b1-4)GlcNAc(b1-3)Gal(b1-4)GlcNAc(b1-2)Man(a1-6)]Man(b1-4)GlcNAc(b1-4)GlcNAc
Summary of the method: as §1

[22] = biological target: Neu5Ac(a2-3)Gal(b1-4)GlcNAc(b1-3)Gal(b1-4)GlcNAc(b1-3)Gal(b1-4)GlcNAc
Summary of the method: as §1

[23] = biological target: Neu5Ac(a2-3)Gal(b1-4)GlcNAc(b1-3)Gal(b1-4)GlcNAc(b1-3)Gal(b1-4)GlcNAc(b1-2)Man(a1-3)[Neu5Ac(a2-3)Gal(b1-4)GlcNAc(b1-3)Gal(b1-4)GlcNAc(b1-3)Gal(b1-4)GlcNAc(b1-2)Man(a1-6)]GalNAc
Summary of the method: as §1

[24] = biological target: Neu5Ac(a2-3)Gal(b1-4)GlcNAc(b1-3)Gal(b1-4)GlcNAc(b1-3)GalNAc
Summary of the method: as §1

[25] = biological target: Neu5Ac(a2-3)Gal(b1-4)GlcNAc(b1-3)Gal(b1-4)GlcNAc(b1-3)[Neu5Ac(a2-3)Gal(b1-4)GlcNAc(b1-3)Gal(b1-4)GlcNAc(b1-6)]GalNAc
Summary of the method: as §1

[26] = biological target: Neu5Ac(a2-3)Gal(b1-4)GlcNAc(b1-3)Gal(b1-4)GlcNAc(b1-6)[Gal(b1-3)]GalNAc
Summary of the method: as §1

[27] = biological target: Neu5Ac(a2-3)Gal(b1-4)GlcNAc(b1-3)Gal(b1-4)[Fuc(a1-3)]GlcNAc
Summary of the method: as §1

[28] = biological target: Neu5Ac(a2-3)Gal(b1-4)GlcNAc(b1-3)GalNAc
Summary of the method: as §1

[29] = biological target: Neu5Ac(a2-3)Gal(b1-4)GlcNAc(b1-3)[Neu5Ac(a2-3)Gal(b1-4)GlcNAc(b1-6)]GalNAc
Summary of the method: as §1

B1: Protein L(A-C2) (Finegoldia magna), Q51912 (protein)
chain: ADEPIDLEKLEEKRDKENVGNLPKFDNEVKDGSENPMAKYPDFDDEASTRFETENNEFEEKKVVSDNFFDQSEHPFVENKEETPETPETDSEEEVTIKANLIFANGSTQTAEFKGTFEKATSEAYAYADTLKKDNGEYTVDVADKGYTLNIKFAGKEKTPEEPKEEVTIKANLIYADGKTQTAEFKGTFEEATAEAYRYADALKKDNGEYTVDVADKGYTLNIKFAGKEKTPEEPKEEVTIKANLIYADGKTQTAEFKGTFEEATAEAYRYADLLAKENGKYTVDVADKGYTLNIKFAGKEKTPEEPKEEVTIKANLIYADGKTQTAEFKGTFAEATAEAYRYADLLAKENGKYTADLEDGGYTINIRFAGKKVDEKPEEKEQVTIKENIYFEDGTVQTATFKGTFAEATAEAYRYADLLSKEHGKYTADLEDGGYTINIRFAGKEEPEETPEKPEVQDGYASYEEAEAAAKEALKNDDVNKSYTIRQGADGRYYYVLSPVEAEEEKPEAQNGYATYEEAEAAAKKALENDPINKSYSIRQGADGRYYYVLSPVEAE
With B1 the “glycan array binding signal (z-score)” value [1] was -0.939, the “glycan array binding signal (z-score)” value [2] was 0.413 and the “glycan array binding signal (z-score)” value [3] was 0.16. The “glycan array binding signal (z-score)” value [4] was -0.278, the “glycan array binding signal (z-score)” value [5] was -0.759 and the “glycan array binding signal (z-score)” value [6] was -0.758. For the same binder, the “glycan array binding signal (z-score)” value [7] was -0.754, the “glycan array binding signal (z-score)” value (Neu5Ac(a2-3)Gal(b1-4)Glc) was 0.38 and the “glycan array binding signal (z-score)” value [8] was -0.281. For the same binder, the “glycan array binding signal (z-score)” value [9] was 1.2, the “glycan array binding signal (z-score)” value [10] was -0.228 and the “glycan array binding signal (z-score)” value [11] was -0.474. For the same binder, the “glycan array binding signal (z-score)” value [12] was 2.19, the “glycan array binding signal (z-score)” value [13] was -0.634 and the “glycan array binding signal (z-score)” value [14] was -0.678. For the same binder, the “glycan array binding signal (z-score)” value [15] was -0.74, the “glycan array binding signal (z-score)” value [16] was 1.63 and the “glycan array binding signal (z-score)” value [17] was -0.899. For the same binder, the “glycan array binding signal (z-score)” value [18] was -0.678, the “glycan array binding signal (z-score)” value [19] was -1.25 and the “glycan array binding signal (z-score)” value [20] was -1.1. For the same binder, the “glycan array binding signal (z-score)” value [21] was 2.07, the “glycan array binding signal (z-score)” value [22] was 0.675 and the “glycan array binding signal (z-score)” value [23] was 3.85. For the same binder, the “glycan array binding signal (z-score)” value [24] was -0.551, the “glycan array binding signal (z-score)” value [25] was 0.955 and the “glycan array binding signal (z-score)” value [26] was 2.4. For the same binder, the “glycan array binding signal (z-score)” value [27] was -0.443, the “glycan array binding signal (z-score)” value [28] was -0.832 and the “glycan array binding signal (z-score)” value [29] was -0.953.
